# Test results reported in PubChem BioAssay AID485353 (National Center for Advancing Translational Sciences (NCATS), 2010).
# The campaign covered roughly 330,000 compounds. About 610 (0.18%) were called active. This list was built around the results that the source calls inconclusive (neither active nor inactive); the mix of calls is not that of the screen. Calls come from the whole dose curve. A potency beside an inconclusive call is a rough fit, not a confirmed value.
# Experiment: qHTS of Yeast-based Assay for SARS-CoV PLP; note: nearly all actives have a fitted effect of over 55% in size
# Conditions: S. cerevisiae expressing SARS-CoV PLpro; Potency: growth rescue; series mostly up to 32.9 µM
# Potency is the fitted concentration of half-maximal effect.
row,Compound,Potency
1,CCc1ccc(Oc2cc(C)nc(N)n2)cc1,active: 15.8 µM
2,CCCC(=O)NC(c1ccc(Cl)cc1Cl)c1ccc2cccnc2c1O (stereo not drawn),"inconclusive: 11.2 µM [activator, partial curve]"
3,Cc1ccccc1Nc1nc(Nc2ccccc2C)nc(SC2=NCCS2)n1,"inconclusive: 12.6 µM [activator, single point]"
4,Cc1cc(OCC(=O)Nc2cc(C(C)(C)C)on2)ccc1[N+](=O)[O-],"inconclusive: 3.55 µM [activator, single point]"
5,COC(=O)c1ccccc1NC(=O)N1CCN(C(=O)c2ccco2)CC1,"inconclusive: 15.8 µM [activator, single point]"
6,CC1CN(CC(=O)c2c(N)n(Cc3ccccc3)c(=O)n(C)c2=O)CC(C)O1 (stereo not drawn),"inconclusive: 17.8 µM [activator, single point]"
7,O=C1C2CCCN2C(=O)N1CCCN1CCN(c2ccc([N+](=O)[O-])cc2)CC1 (stereo not drawn),"inconclusive: 3.16 µM [activator, single point]"
8,Cc1cccc(C(C)C)c1NC(=O)c1c(-c2ccccc2)noc1C,"inconclusive: 0.355 µM [activator, partial curve, poor fit]"
9,O=S(=O)(Cc1ccccc1)N=Nc1c(O)[nH]c2ccc(Br)cc12,inactive
10,Cc1cc(C(=O)N/N=C/c2cc([N+](=O)[O-])ccc2O)c2ccccc2n1,active: 3.16 µM
11,CCCNC(=S)N1CCN(c2nc(-c3cccc(OC)c3)cs2)CC1,"inconclusive: 20 µM [activator, single point]"
12,Cc1ccc(N=C2NC(=O)/C(=C\c3ccsc3)S2)c(C)c1,inactive
13,CC(=O)Nc1ccc(S(=O)(=O)N(C)CC(=O)OCC(=O)N(C)C2CCS(=O)(=O)C2)cc1 (stereo not drawn),"inconclusive: 3.98 µM [activator, single point]"
14,COc1ccccc1NC(=O)CCc1nc(-c2ccccc2F)no1,inactive
15,O=[N+]([O-])c1cc(NS(=O)(=O)c2ccc(Cl)nc2)ccc1Cl,"inconclusive: 20 µM [activator, single point]"
16,CCNS(=O)(=O)c1ccc(CCC(=O)N2CCC(C)CC2)cc1,inactive
17,O=C(Nc1ccc(N2CCOCC2)cc1)c1cccc(-n2cnnc2)c1,"inconclusive: 0.355 µM [activator, full curve]"
18,CCOc1cccc2sc(=NC(=O)CCS(=O)(=O)c3ccccc3)n(CC)c12,"inconclusive: 17.8 µM [activator, single point]"
19,COc1ccc(C)cc1NC(=O)CN(C)S(=O)(=O)c1cnc[nH]1,"inconclusive: 3.98 µM [activator, partial curve]"
20,Cc1cc(C(=O)N(C)CC(=O)Nc2ccc(Cl)c(C(F)(F)F)c2)no1,inactive
21,Cc1cc(C(=O)CCl)c(C)n1-c1cccc(S(=O)(=O)N2CCOCC2)c1,"inconclusive: 7.94 µM [activator, partial curve]"
22,CCCCN(C(=O)c1cccc(S(=O)(=O)N(C)c2ccc(C)cc2)c1)c1c(N)n(CCCC)c(=O)[nH]c1=O,inactive
23,O=C(COC(=O)CCc1ccc(S(=O)(=O)N2CCCCC2)cc1)Nc1ccc2c(c1)OCO2,"inconclusive: 5.01 µM [activator, partial curve]"

row,Compound,Potency
1,O=C(Oc1c(CN2CCOCC2)cc(Cl)c2cccnc12)c1ccccc1,"inconclusive: 2.51 µM [activator, partial curve]"
2,CCCNC(=O)c1ccc2c(=O)c(O)c(-c3ccc(C)cc3)[nH]c2c1,"inconclusive: 2.24 µM [activator, full curve]"
3,CNc1ccc(Br)cc(C(=O)/C=C/c2cc(OC)ccc2OC)c1=O,"inconclusive: 3.98 µM [activator, full curve, poor fit]"
4,COc1ccc(CCNC(=O)CSc2nc3ccsc3c(=O)n2CC2CCC(C(=O)O)CC2)cc1OC (stereo not drawn),"inconclusive: 3.55 µM [activator, single point]"
5,Cc1nc(N)c(C#N)c(-c2ccccc2)c1C,inactive
6,COc1cc([N+](=O)[O-])cc(/C=N/NC(=O)C(C)Nc2cccc(C)c2)c1O (stereo not drawn),"inconclusive: 20 µM [activator, single point]"
7,CC1=C(C(=O)Nc2ccc(C)cc2C)C(c2ccc(Cl)cc2)n2nc(C(=O)OC(C)C)nc2N1 (stereo not drawn),"inconclusive: 7.94 µM [activator, partial curve]"
8,Cc1c(-c2nn(C)c(=O)c3ccccc23)oc2ccc(F)cc2c1=O,"inconclusive: 3.98 µM [activator, single point]"
9,Cc1cnnn1-c1ccc(C(=O)CCl)cc1,"inconclusive: 17.8 µM [activator, partial curve, poor fit]"
10,NC(=S)NNc1cc(Cl)cc(Cl)c1,inactive
11,COCCN1CCn2c(nc3cc(NC(=O)c4ccc(OC)cc4)ccc32)C1,"inconclusive: 10 µM [activator, single point]"
12,CC(C)Cc1nc2oc3c(NCCCN4CCOCC4)ncnc3c2c2c1CCC2,inactive
13,O=C(COC(=O)/C=C/c1cccc(C(F)(F)F)c1)NCc1ccccc1,"inconclusive: 2.51 µM [activator, single point]"
14,CNc1nc(-c2ccccn2)nnc1-c1ccccc1,"inconclusive: 20 µM [activator, single point]"
15,Cc1cc(/C=N\NC(=O)CC(=O)NC2CCCCC2)c(C)n1-c1ccc(Cl)c(Cl)c1,"inconclusive: 20 µM [activator, single point]"
16,COC(=O)c1sccc1-c1ccc(/C=N/OCc2c(Cl)cccc2Cl)o1,"inconclusive: 3.16 µM [activator, single point]"
17,Cc1oc(-c2ccc(Cl)cc2)nc1CS(=O)CC(=O)NCCCN1CCN(Cc2ccccc2)CC1 (stereo not drawn),inactive
18,COC(=O)C1=C(C(=O)OC)SC(=C2C(=S)C(C)(C)N(C(=O)C3CC3)c3ccccc32)S1,"inconclusive: 3.98 µM [activator, partial curve]"
19,O=C(NC(c1ccc(Cl)cc1)c1cc(Cl)c2cccnc2c1O)c1cccnc1 (stereo not drawn),active: 2.51 µM
20,COc1cc(/C=N/NC(=O)c2ccoc2C)ccc1O,"inconclusive: 12.6 µM [activator, partial curve]"
21,COc1ccc(-c2nnc(SCC(=O)Nc3ccc(C)cc3)n2C)cc1,"inconclusive: 20 µM [activator, single point]"
22,CCC(/C=C1\Sc2ccc(OC)cc2N1CCO)=C\c1sc2ccc(OC)cc2[n+]1CCO,inactive
23,COc1cccc(C(=O)NNC(=O)c2ccc(NS(=O)(=O)c3cccs3)cc2)c1OC,inactive

# Rewritten with bars between the fields: entries from further up.
row | Compound | Potency
1 | O=C(Oc1c(CN2CCOCC2)cc(Cl)c2cccnc12)c1ccccc1 | inconclusive: 2.51 µM [activator, partial curve]
2 | CCCNC(=O)c1ccc2c(=O)c(O)c(-c3ccc(C)cc3)[nH]c2c1 | inconclusive: 2.24 µM [activator, full curve]
3 | CNc1ccc(Br)cc(C(=O)/C=C/c2cc(OC)ccc2OC)c1=O | inconclusive: 3.98 µM [activator, full curve, poor fit]
4 | COc1ccc(CCNC(=O)CSc2nc3ccsc3c(=O)n2CC2CCC(C(=O)O)CC2)cc1OC (stereo not drawn) | inconclusive: 3.55 µM [activator, single point]

# (listing goes on)

row,Compound,Potency
1,O=C(CN1C(=O)/C(=C/c2ccccc2)SC1=S)NC1CCS(=O)(=O)C1 (stereo not drawn),"inconclusive: 3.98 µM [activator, single point]"
2,CC1=NN(c2ccc(Cl)cc2)C(=O)C1C(c1ccccc1O)c1c(C)[nH]n(-c2ccc(Cl)cc2)c1=O (stereo not drawn),"inconclusive: 8.91 µM [activator, partial curve, poor fit]"
3,COc1cc(OC)cc(C(=O)N2CCN(Cc3ccccc3Br)CC2)c1,inactive
4,CC(NC(=O)c1ccc(Br)cc1)c1ccccc1 (stereo not drawn),"inconclusive: 0.282 µM [activator, partial curve, poor fit]"
5,O=C(C1CC(c2ccc(F)cc2)=NO1)N1CCN(c2ccccc2)CC1 (stereo not drawn),inactive
6,CCc1ccc(CN2CCC(n3nccc3NC(=O)c3ccccc3Cl)CC2)cc1,"inconclusive: 20 µM [activator, single point]"
7,COc1ccc(Cc2nc3ccc(S(=O)(=O)N4CCOCC4)cc3[nH]2)cc1OC,"inconclusive: 3.55 µM [activator, single point]"
8,COc1ccc2cc3c(N)nn(C(=O)c4ccc(Cl)c([N+](=O)[O-])c4)c3nc2c1,inactive
9,O=C(N/N=C\c1cc(Cl)ccc1O)c1ccc(S(=O)(=O)N2CCCCC2)cc1,"inconclusive: 1.12 µM [activator, partial curve]"
10,O=C(NCc1ccncc1)C(=O)NCC1OCCCN1S(=O)(=O)c1ccc(F)cc1 (stereo not drawn),"inconclusive: 2.24 µM [activator, full curve, poor fit]"
11,CC(C)CC(=O)NC(=S)Nc1ccccn1,"inconclusive: 14.1 µM [activator, partial curve]"
12,COc1ccc(C(=O)O)cc1S(=O)(=O)Nc1ccc(N2CCCCC2)cc1,inactive
13,O=C(Nc1c2c(nn1-c1ccc([N+](=O)[O-])cc1)CS(=O)(=O)C2)c1ccccc1F,"inconclusive: 3.98 µM [activator, single point]"
14,NC(=O)c1nsc(C(=O)N(CCc2ccccc2)C(C(=O)NC2CCCC2)c2ccco2)c1N (stereo not drawn),"inconclusive: 17.8 µM [activator, single point]"
15,CC(O)c1nc2ccccc2n1CCCc1ccccc1 (stereo not drawn),"inconclusive: 2.51 µM [activator, full curve]"
16,COc1ccc(S(=O)(=O)Nc2nnc(C)s2)cc1,"inconclusive: 22.4 µM [activator, single point]"
17,COc1cccc(C(N)CC(=O)O)c1 (stereo not drawn),"inconclusive: 12.6 µM [activator, single point]"
18,Cc1ccc(/C=N/Nc2nc3ccccc3[nH]2)s1,active: 2.82 µM
19,COc1ccc(OCC(=O)Nn2c(-c3ccc(OC)cc3)nc3ccccc3c2=O)cc1,"inconclusive: 3.98 µM [activator, single point]"
20,CN(CCC#N)C(=O)Cn1nc(Cc2ccncc2)c2ccccc2c1=O,inactive
21,COCCC1CCCCN1C(=O)c1cc(COc2cccc(C(C)=O)c2)on1 (stereo not drawn),"inconclusive: 4.47 µM [activator, single point]"
22,COc1ccc(/C=N/Nc2ncc(C(F)(F)F)cc2Cl)c(OC)c1OC,"inconclusive: 2.24 µM [activator, partial curve]"
